These are yes or no findings as the source states them, for the method shown. Some entries that bind do so weakly or less than the wild type.
Biological target: intact GST-Grb2 fusion protein (UniProt P62993)
Test: SPR competition, SHC phosphopeptide on the chip (Figure 6)

By UniProt entry, the sequences of proteins in these tests, tags left out.
UniProt P62993: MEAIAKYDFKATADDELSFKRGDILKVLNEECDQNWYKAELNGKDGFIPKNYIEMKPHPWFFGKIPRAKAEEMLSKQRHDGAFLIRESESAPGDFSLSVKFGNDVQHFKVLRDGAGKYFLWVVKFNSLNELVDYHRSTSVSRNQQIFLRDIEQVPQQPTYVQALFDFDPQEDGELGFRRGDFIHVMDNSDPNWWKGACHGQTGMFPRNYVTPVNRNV

- binding: binds
Binder: DDPSYVNVQ [SHC control peptide (…)]
